Laboratory results reported in the supplement of paper PMC8728848.
The other results are listed elsewhere or left out.

Columns and labels:
Assay in all cases: glycan array binding signal (z-score within array); higher = stronger binding
Conditions in all cases: glycan notation: IUPAC condensed, linker removed
GlcNAc(b1-3)Gal(b1-4)Glc = molecular target: GlcNAc(b1-3)Gal(b1-4)Glc
Outline: (§1)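 From the Consortium for Functional Glycomics database, 3228 arrays were curated, keeping only those whose protein sequence was available. Binding is given as a within-array Z-score averaged across arrays sharing a protein sequence and across linkers. Negative Z-scores can be read as non-binding.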

[1] = molecular target: GlcNAc(b1-3)Gal(b1-4)GlcNAc
Outline: as §1

[2] = molecular target: GlcNAc(b1-3)Gal(b1-4)GlcNAc(b1-2)Man(a1-3)[GlcNAc(b1-3)Gal(b1-4)GlcNAc(b1-2)Man(a1-6)]Man(b1-4)GlcNAc(b1-4)GlcNAc
Outline: as §1

[3] = molecular target: GlcNAc(b1-3)Gal(b1-4)GlcNAc(b1-2)Man(a1-3)[GlcNAc(b1-3)Gal(b1-4)GlcNAc(b1-2)Man(a1-6)]Man(b1-4)GlcNAc(b1-4)[Fuc(a1-6)]GlcNAc
Outline: as §1

[4] = molecular target: GlcNAc(b1-3)Gal(b1-4)GlcNAc(b1-2)[GlcNAc(b1-3)Gal(b1-4)GlcNAc(b1-6)]Man(a1-6)[GlcNAc(b1-3)Gal(b1-4)GlcNAc(b1-2)Man(a1-3)]Man(b1-4)GlcNAc(b1-4)GlcNAc
Outline: as §1

[5] = molecular target: GlcNAc(b1-3)Gal(b1-4)GlcNAc(b1-3)Gal(b1-4)GlcNAc
Outline: as §1

[6] = molecular target: GlcNAc(b1-3)Gal(b1-4)GlcNAc(b1-3)Gal(b1-4)GlcNAc(b1-2)Man(a1-3)[GlcNAc(b1-3)Gal(b1-4)GlcNAc(b1-3)Gal(b1-4)GlcNAc(b1-2)Man(a1-6)]Man(b1-4)GlcNAc(b1-4)GlcNAc
Outline: as §1

[7] = molecular target: GlcNAc(b1-3)Gal(b1-4)GlcNAc(b1-3)Gal(b1-4)GlcNAc(b1-2)Man(a1-3)[GlcNAc(b1-3)Gal(b1-4)GlcNAc(b1-3)Gal(b1-4)GlcNAc(b1-2)Man(a1-6)]Man(b1-4)GlcNAc(b1-4)[Fuc(a1-6)]GlcNAc
Outline: as §1

[8] = molecular target: GlcNAc(b1-3)Gal(b1-4)GlcNAc(b1-3)Gal(b1-4)GlcNAc(b1-2)[GlcNAc(b1-3)Gal(b1-4)GlcNAc(b1-3)Gal(b1-4)GlcNAc(b1-6)]Man(a1-6)[GlcNAc(b1-3)Gal(b1-4)GlcNAc(b1-3)Gal(b1-4)GlcNAc(b1-2)Man(a1-3)]Man(b1-4)GlcNAc(b1-4)[Fuc(a1-6)]GlcNAc
Outline: as §1

[9] = molecular target: GlcNAc(b1-3)Gal(b1-4)GlcNAc(b1-3)Gal(b1-4)GlcNAc(b1-3)Gal(b1-4)GlcNAc(b1-2)Man(a1-3)[GlcNAc(b1-3)Gal(b1-4)GlcNAc(b1-3)Gal(b1-4)GlcNAc(b1-3)Gal(b1-4)GlcNAc(b1-2)Man(a1-6)]Man(b1-4)GlcNAc(b1-4)GlcNAc
Outline: as §1

[10] = molecular target: GlcNAc(b1-3)Gal(b1-4)GlcNAc(b1-3)Gal(b1-4)GlcNAc(b1-3)Gal(b1-4)GlcNAc(b1-2)Man(a1-3)[GlcNAc(b1-3)Gal(b1-4)GlcNAc(b1-3)Gal(b1-4)GlcNAc(b1-3)Gal(b1-4)GlcNAc(b1-2)Man(a1-6)]Man(b1-4)GlcNAc(b1-4)[Fuc(a1-6)]GlcNAc
Outline: as §1

[11] = molecular target: GlcNAc(b1-3)Gal(b1-4)GlcNAc(b1-3)Gal(b1-4)GlcNAc(b1-3)Gal(b1-4)GlcNAc(b1-2)[GlcNAc(b1-3)Gal(b1-4)GlcNAc(b1-3)Gal(b1-4)GlcNAc(b1-3)Gal(b1-4)GlcNAc(b1-6)]Man(a1-6)[GlcNAc(b1-3)Gal(b1-4)GlcNAc(b1-3)Gal(b1-4)GlcNAc(b1-3)Gal(b1-4)GlcNAc(b1-2)Man(a1-3)]Man(b1-4)GlcNAc(b1-4)[Fuc(a1-6)]GlcNAc
Outline: as §1

[12] = molecular target: GlcNAc(b1-3)Gal(b1-4)GlcNAc(b1-3)Gal(b1-4)GlcNAc(b1-3)Gal(b1-4)GlcNAc(b1-3)Gal(b1-4)GlcNAc(b1-2)Man(a1-3)[GlcNAc(b1-3)Gal(b1-4)GlcNAc(b1-3)Gal(b1-4)GlcNAc(b1-3)Gal(b1-4)GlcNAc(b1-3)Gal(b1-4)GlcNAc(b1-2)Man(a1-6)]Man(b1-4)GlcNAc(b1-4)GlcNAc
Outline: as §1

[13] = molecular target: GlcNAc(b1-3)Gal(b1-4)GlcNAc(b1-3)Gal(b1-4)GlcNAc(b1-3)Gal(b1-4)GlcNAc(b1-3)Gal(b1-4)GlcNAc(b1-2)Man(a1-3)[GlcNAc(b1-3)Gal(b1-4)GlcNAc(b1-3)Gal(b1-4)GlcNAc(b1-3)Gal(b1-4)GlcNAc(b1-3)Gal(b1-4)GlcNAc(b1-2)Man(a1-6)]Man(b1-4)GlcNAc(b1-4)[Fuc(a1-6)]GlcNAc
Outline: as §1

[14] = molecular target: GlcNAc(b1-3)Gal(b1-4)GlcNAc(b1-3)Gal(b1-4)GlcNAc(b1-3)Gal(b1-4)GlcNAc(b1-3)Gal(b1-4)GlcNAc(b1-2)[GlcNAc(b1-3)Gal(b1-4)GlcNAc(b1-3)Gal(b1-4)GlcNAc(b1-3)Gal(b1-4)GlcNAc(b1-3)Gal(b1-4)GlcNAc(b1-6)]Man(a1-6)[GlcNAc(b1-3)Gal(b1-4)GlcNAc(b1-3)Gal(b1-4)GlcNAc(b1-3)Gal(b1-4)GlcNAc(b1-3)Gal(b1-4)GlcNAc(b1-2)Man(a1-3)]Man(b1-4)GlcNAc(b1-4)[Fuc(a1-6)]GlcNAc
Outline: as §1

[15] = molecular target: GlcNAc(b1-3)Gal(b1-4)GlcNAc(b1-3)Gal(b1-4)GlcNAc(b1-3)GalNAc
Outline: as §1

[16] = molecular target: GlcNAc(b1-3)Gal(b1-4)GlcNAc(b1-3)GalNAc
Outline: as §1

[17] = molecular target: GlcNAc(b1-3)Gal(b1-4)GlcNAc(b1-3)[GlcNAc(b1-3)Gal(b1-4)GlcNAc(b1-3)]GalNAc
Outline: as §1

[18] = molecular target: GlcNAc(b1-3)Gal(b1-4)GlcNAc(b1-6)[Gal(b1-3)]GalNAc
Outline: as §1

[19] = molecular target: GlcNAc(b1-3)Gal(b1-4)GlcNAc(b1-6)[GlcNAc(b1-3)Gal(b1-3)]GalNAc
Outline: as §1

[20] = molecular target: GlcNAc(b1-3)Gal(b1-4)GlcNAc(b1-6)[GlcNAc(b1-3)]Gal(b1-4)GlcNAc
Outline: as §1

GlcNAc(b1-3)GalNAc = molecular target: GlcNAc(b1-3)GalNAc
Outline: as §1

GlcNAc(b1-3)Man = molecular target: GlcNAc(b1-3)Man
Outline: as §1

[21] = molecular target: GlcNAc(b1-3)[GlcNAc(b1-4)][GlcNAc(b1-6)]GlcNAc
Outline: as §1

[22] = molecular target: GlcNAc(b1-3)[GlcNAc(b1-6)]Gal(b1-4)GlcNAc
Outline: as §1

[23] = molecular target: GlcNAc(b1-3)[GlcNAc(b1-6)]GalNAc
Outline: as §1

[24] = molecular target: GlcNAc(b1-4)Gal(b1-4)GlcNAc
Outline: as §1

GlcNAc(b1-4)GlcNAc = molecular target: GlcNAc(b1-4)GlcNAc
Outline: as §1

[25] = molecular target: GlcNAc(b1-4)GlcNAc(b1-4)GlcNAc
Outline: as §1

[26] = molecular target: GlcNAc(b1-4)GlcNAc(b1-4)GlcNAc(b1-4)GlcNAc(b1-4)GlcNAc
Outline: as §1

[27] = molecular target: GlcNAc(b1-4)GlcNAc(b1-4)GlcNAc(b1-4)GlcNAc(b1-4)GlcNAc(b1-4)GlcNAc
Outline: as §1

[28] = molecular target: GlcNAc(b1-4)[GlcNAc(b1-6)]GalNAc
Outline: as §1

[29] = molecular target: GlcNAc(b1-6)Gal(b1-4)GlcNAc
Outline: as §1

GlcNAc(b1-6)GalNAc = molecular target: GlcNAc(b1-6)GalNAc
Outline: as §1

[30] = molecular target: GlcNAc6S(b1-3)Gal(b1-4)GlcNAc
Outline: as §1

Kdn(a2-3)Gal(b1-3)GalNAc = molecular target: Kdn(a2-3)Gal(b1-3)GalNAc
Outline: as §1

Kdn(a2-3)Gal(b1-3)GlcNAc = molecular target: Kdn(a2-3)Gal(b1-3)GlcNAc
Outline: as §1

Kdn(a2-3)Gal(b1-4)Glc = molecular target: Kdn(a2-3)Gal(b1-4)Glc
Outline: as §1

Kdn(a2-3)Gal(b1-4)GlcNAc = molecular target: Kdn(a2-3)Gal(b1-4)GlcNAc
Outline: as §1

[31] = molecular target: Kdn(a2-3)Gal(b1-4)[Fuc(a1-3)]GlcNAc
Outline: as §1

Kdn(a2-6)Gal(b1-4)GlcNAc = molecular target: Kdn(a2-6)Gal(b1-4)GlcNAc
Outline: as §1

[32] = molecular target: Man(a1-2)Man(a1-2)Man(a1-3)Man
Outline: as §1

[33] = molecular target: Man(a1-2)Man(a1-2)Man(a1-6)[Man(a1-3)]Man
Outline: as §1

Man(a1-2)Man(a1-3)Man = molecular target: Man(a1-2)Man(a1-3)Man
Outline: as §1

[34] = molecular target: Man(a1-2)Man(a1-3)[Man(a1-2)Man(a1-6)]Man
Outline: as §1

B1: MXA PilAct-eGFP (Myxococcus xanthus), Q59589 (protein)
chain: MRVSRFNPRNRGFTLIELMIVVAIIGILAAIAIPNFIKFQARSKQSEAKTNLKALYTAQKSFFSEKDRYSDFANEIGFAPERGNRYGYRVSAAAGDCEVRNAADLPVPAAGVPCISNDSFRFGANSAIDDPTPVVARFVPQGAAGWNTTLGVQPTIADCPNCNFFAGARGNADNEATFDDWVIAGFEGSGQVGPCSEAGNVASGTPYNTRNDVACDGAAQ
glycan array binding signal (z-score) (GlcNAc(b1-3)Gal(b1-4)Glc): -0.062
glycan array binding signal (z-score) [1]: -0.363
glycan array binding signal (z-score) [2]: -0.064
glycan array binding signal (z-score) [3]: 0.04
glycan array binding signal (z-score) [4]: -0.007
glycan array binding signal (z-score) [5]: 0.474
glycan array binding signal (z-score) [6]: -0.438
glycan array binding signal (z-score) [7]: 0.175
glycan array binding signal (z-score) [8]: 1.33
glycan array binding signal (z-score) [9]: 3.99
glycan array binding signal (z-score) [10]: 2
glycan array binding signal (z-score) [11]: 1.01
glycan array binding signal (z-score) [12]: 0.674
glycan array binding signal (z-score) [13]: 2.14
glycan array binding signal (z-score) [14]: 3.85
glycan array binding signal (z-score) [15]: 0.384
glycan array binding signal (z-score) [16]: -0.567
glycan array binding signal (z-score) [17]: -0.168
glycan array binding signal (z-score) [18]: -0.939
glycan array binding signal (z-score) [19]: -0.657
glycan array binding signal (z-score) [20]: 0.234
glycan array binding signal (z-score) (GlcNAc(b1-3)GalNAc): -0.983
glycan array binding signal (z-score) (GlcNAc(b1-3)Man): -0.861
glycan array binding signal (z-score) [21]: -0.095
glycan array binding signal (z-score) [22]: 1.16
glycan array binding signal (z-score) [23]: 0.014
glycan array binding signal (z-score) [24]: 0.606
glycan array binding signal (z-score) (GlcNAc(b1-4)GlcNAc): 0.091
glycan array binding signal (z-score) [25]: 0.101
glycan array binding signal (z-score) [26]: -0.618
glycan array binding signal (z-score) [27]: 0.147
glycan array binding signal (z-score) [28]: -1.04
glycan array binding signal (z-score) [29]: 0.394
glycan array binding signal (z-score) (GlcNAc(b1-6)GalNAc): -0.63
glycan array binding signal (z-score) [30]: -0.184
glycan array binding signal (z-score) (Kdn(a2-3)Gal(b1-3)GalNAc): -0.538
glycan array binding signal (z-score) (Kdn(a2-3)Gal(b1-3)GlcNAc): 0.462
glycan array binding signal (z-score) (Kdn(a2-3)Gal(b1-4)Glc): -1.21
glycan array binding signal (z-score) (Kdn(a2-3)Gal(b1-4)GlcNAc): -0.846
glycan array binding signal (z-score) [31]: -1.11
glycan array binding signal (z-score) (Kdn(a2-6)Gal(b1-4)GlcNAc): -0.849
glycan array binding signal (z-score) [32]: -0.247
glycan array binding signal (z-score) [33]: -0.615
glycan array binding signal (z-score) (Man(a1-2)Man(a1-3)Man): 0.412
glycan array binding signal (z-score) [34]: -0.808
